About 220 (0.063%) of roughly 350,000 compounds were called active. The shares of active, inactive and inconclusive entries below differ from those in the screen. Calls come from the whole dose curve; as a rule, active = well fitted activation curve with a large enough effect; inconclusive = small, poorly fitted or top-dose-only effect; inactive = no such curve, though single readings can be large or run the other way. Potencies of inconclusive entries are doubtful fits and often do not repeat.
test: qHTS for Activators of Integrin-Mediated Alleviation for Muscular Dystrophy; settings: alpha7betagal myoblasts, beta-gal FDG fluorescence, 48 h; activation: at 38.3 µM (top of the series); note: nearly all actives have a fitted effect of over 60% in size;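 for activation: 100% = response of the positive control SU9516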
Summary of the method: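 alpha7betagal+/- myoblasts (passage 13, 250/well) treated 48 h at 37C with compounds at 1:260 dilution of DMSO stock. Lysed, then beta-galactosidase activity read as FDG fluorescence (ex 480/em 540) after 30 min, with pre-read for autofluorescence.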
Potency is the fitted concentration of half-maximal effect.

activation, inconclusive:
COc1ccc(CN2CCSCC2)cc1O -45.3% [activator], CC(=O)OCCNc1cc(Sc2nc3ccccc3[nH]2)c2nonc2c1[N+](=O)[O-] -45.7% [activator]

activation, inactive:
CC(C)CCNC(=O)C(c1ccc(O)cc1)N(Cc1cccs1)C(=O)C1COc2ccccc2O1 (configuration not stated) -31.2%, CC(C)[C@@H]1CC[C@@H](C)C[C@H]1OC(=O)C[n+]1cc(-c2ccc(Cl)cc2)n2c1CCCCC2 -34.8%, O=C(Nc1ccc(F)cc1F)Nc1ccc(F)cc1F -21.1%, CN1CCCC1CCNc1ccc2oc3ccccc3c(=O)c2c1 (configuration not stated) -30.5%, O=c1c2cc(NC(=S)NCCCN3CCC(Cc4ccccc4)CC3)ccc2nc2n1CCCCC2 -31%, O=C(CCN1C(=O)C2CCCCC2C1=O)Nc1cc([N+](=O)[O-])ccc1Cl (configuration not stated) -37.6%, COc1ccc(-c2cc(NCCc3ccncc3)n3ncnc3n2)cc1 7.34%, CC(C)(C)OC(=O)CNC(=O)c1[nH]cnc1C(=O)NCC(=O)OCc1ccccc1 7.08%, COc1ccc(N2CCN(CCCNC(=O)c3cc4sccc4n3C)CC2)cc1 -27.2%, Cc1nnc2sc(SCC(=O)Nc3ccc(Br)cc3)nn2c1=O -19%, Clc1ccc(-n2nnnc2SCc2cn3ccccc3n2)cc1 -24.6%, O=C(OCC(=O)N1CCCc2ccccc21)c1cc(Cl)ccc1O -22.2%, CCOc1ccccc1NC(=O)CSc1nnc(CNC(=O)c2cc(OC)c(OC)c(OC)c2)o1 -0.382%, CC(=O)c1c(C)[nH]c(C(=O)COC(=O)CCSc2ccccc2)c1C 23.4%, CCCOc1ccc(-c2nc(C#N)c(N3CCc4ccccc4C3)o2)cc1 12.9%, COc1ccccc1CN(Cc1nc2ccccc2c(=O)[nH]1)C(=O)Nc1cccc(C)c1 17.3%, COc1cnc(-c2ccccn2)nc1Sc1c(Cl)cccc1Cl -9.93%, Cc1ccc(CNC(=O)c2ccc(F)c(S(=O)(=O)N3CCOCC3)c2)cc1 5.13%, O=C(NCCN1CCN(c2ccccc2)CC1)c1cccc(Cl)c1 5.67%, O=C1c2ccccc2C(=O)c2c(/C=C/N3CCCCC3)ccnc21 -45.5%, CCOC(=O)C(c1ccccc1)C(Nc1ccccc1)c1ccccn1 (configuration not stated) 28.6%, CCOC(=O)COn1c(=O)c(-c2ccc(C)cc2)[n+]([O-])c2ccccc21 -11.1%, COc1ccccc1CC(NC(C)=O)C(=O)NC1CCN(C(=O)Nc2ccccc2C)CC1 (configuration not stated) -21.5%, CSc1ncnc2c1ncn2CCCNCc1cccs1 -9.79%, Cc1sc(N)nc1C12CC3CC(CC(C3)C1)C2 -11.1%, CC(C)CNC(=O)c1cccc(NC(=O)COc2ccc([N+](=O)[O-])cc2)c1 -45%, CCN(CC(=O)NCc1cccs1)C(=O)/C=C/c1cc(OC)c(OC)c(OC)c1 -7.75%, Cc1ccc(C(=O)N(C)CC(=O)Nc2ccc(Cl)c(C(F)(F)F)c2)cc1S(=O)(=O)N1CCCCC1 -21.3%, O=[N+]([O-])c1cnc2ccccn12 -6.77%, Cc1cc(C)c2c(N)c(C(=O)c3ccc(Br)cc3)oc2n1 11.1%

Potency, active:
CC(=O)Nc1nonc1-c1nc2ccccc2n1CCC(C)C 11.2 µM

Potency, inconclusive:
CCOCCc1nn2c(=O)cc(CSCC(=O)Nc3cccc(C)c3C)nc2s1 28.2 µM [activator, single point], O=C(CN(CCc1ccccc1)C(=O)c1csnn1)NC1CCCC1 2.51 µM [activator, single point], C/C(=N\NC(=O)CNC(=O)c1ccc2c(c1)OCO2)c1ccco1 28.2 µM [activator, single point], COc1cc(-n2c(=O)c3ccccc3n(Cc3cccc(C)c3)c2=O)cc(OC)c1OC 10 µM [activator, single point], COc1cc(OC)c(OC)cc1/C=C1\SC(N2CCCCC2)=NC1=O 5.62 µM [activator, single point], O=C(CN1CCN(Cc2cccc(C(F)(F)F)c2)CC1)NCC(=O)Nc1ccc(F)c(F)c1F 12.6 µM [activator, single point], COc1ccc(CNC(=O)c2ccc(NC(=O)C3=CSCCO3)cc2)cc1 3.16 µM [activator, partial curve, poor fit], Cc1nn(-c2ccccc2)c(Cl)c1/C=N/NC(=O)c1[nH]ncc1Br 28.2 µM [activator, single point], COc1ccccc1N(CCC#N)C(=O)COC(=O)CCC(=O)c1ccc(F)cc1 12.6 µM [activator, single point], Cc1cc(=O)[nH]c(N/N=C/c2ccc(Cl)c([N+](=O)[O-])c2)n1 3.98 µM [activator, full curve, poor fit], CCOC(=O)/C=C/C(=O)OCC(=O)NCc1ccccc1 4.47 µM [activator, single point], COc1ccc(-c2cc(N3C(=O)Nc4ccccc4N3O)n[nH]2)cc1OC 1.41 µM [activator, partial curve, poor fit], CNC(=O)c1ccc(NC(=O)c2cc(S(=O)(=O)N3CCOCC3)ccc2N2CCCC2)cc1 5.01 µM [activator, single point], Cc1ccc(NC(=O)CN(C)C(=O)c2ccc(-n3cncn3)c([N+](=O)[O-])c2)cc1 15.8 µM [activator, partial curve, poor fit], O=C(NNC(=O)c1cccc2ccccc12)c1cccc(Br)c1 3.16 µM [activator, single point], CNC(=O)c1cc(C(=O)c2c(Cl)cccc2Cl)c[nH]1 12.6 µM [activator, partial curve, poor fit], O=C(COc1ccccc1F)NNC(=O)c1cc(Br)ccc1Cl 28.2 µM [activator, single point], C=CCc1cccc(/C=N/c2ncn[nH]2)c1O 1.26 µM [activator, partial curve, poor fit], Cc1ccc(/C=C2/SC(=S)N(CCCC(=O)Nc3cc([N+](=O)[O-])ccc3O)C2=O)cc1 17.8 µM [activator, single point], Cc1nnc(NC(=O)COc2ccc3c(C)cc(=O)oc3c2)s1 5.01 µM [activator, single point], CCc1nnc(NC(=O)c2cc(OC)c(OC)cc2[N+](=O)[O-])s1 5.01 µM [activator, single point], CC(C)(C)c1nn(-c2ccccc2)c2[nH]c(=O)c(CNCc3ccc4c(c3)OCO4)cc12 8.91 µM [activator, single point], O=C1CCc2cc(NS(=O)(=O)c3ccc([N+](=O)[O-])cc3)cc3c2N1CC3 0.316 µM [activator, full curve, poor fit], O=C(Nc1cccc(Cl)c1)c1ccc(Cn2cc(Cl)cn2)cc1 3.98 µM [activator, partial curve, poor fit], O=C(COC(=O)c1cc(S(=O)(=O)N2CCCC2)ccc1O)NCCc1ccccc1 0.447 µM [activator, full curve, poor fit], CC(C)CCN1CCN(C2CSCCSC2)CC1CCO (configuration not stated) 3.55 µM [activator, single point], CC(C)CN(C(=O)COC(=O)CNC(=O)c1ccccc1F)C1CCS(=O)(=O)C1 (configuration not stated) 20 µM [activator, single point], COc1ccc(/C=N\NC(=O)c2sccc2C)cc1Cn1nc(C)cc1C 28.2 µM [activator, single point], COc1cccc(NC(=O)Nc2cccnc2)c1 22.4 µM [activator, partial curve, poor fit], Cc1cc(C(=O)NNc2c(Cl)cccc2Cl)n(C(C)(C)C)n1 0.447 µM [activator, full curve, poor fit], CC(NC(=O)C1CCCC1)c1ccccc1 (configuration not stated) 5.01 µM [activator, single point], O=C(Nc1ccc(S(=O)(=O)Nc2cnc3ccccc3n2)cc1)c1ccc(Cl)c([N+](=O)[O-])c1 5.01 µM [activator, single point], CCOc1cc(C2Nc3ccccc3C(=O)N2c2ccccc2OC)ccc1O (configuration not stated) 28.2 µM [activator, single point], COc1ccc(C(=O)CSc2[nH]c(=O)cc(C(F)(F)F)c2C#N)cc1 20 µM [activator, partial curve, poor fit], C#CCn1c(CCNC(=O)c2ccco2)nc2ccccc21 28.2 µM [activator, single point], CC(=O)Nc1ccc(Sc2ccccc2C(=O)Nc2ccc(F)cc2)cn1 28.2 µM [activator, single point], O=C(NCCCn1ccnc1)/C(=C/c1ccco1)NC(=O)c1ccco1 3.98 µM [activator, single point], NS(=O)(=O)c1ccc(NC(CNS(=O)(=O)c2ccccc2)c2ccccc2)cc1 (configuration not stated) 10 µM [activator, single point], CCOC(=O)N1CCN(c2c(N3CCN(C(=O)OCC)CC3)c(=O)c2=O)CC1 28.2 µM [activator, single point]
